PubChem BioAssay AID1508597 | Cure First – 2020
Shown is an unselected part of about 2,100 deposited reagents. 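Calls flag viability under 80% in either arm, not effects specific to rucaparib; the reference for percent is not stated.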 Unmarked entries are inactive. Not given: the 100% reference.

- Aim: 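Genes whose silencing sensitises or protects ovarian cancer cells against rucaparib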 (primary screen)
- Cells: human ovarian carcinoma lines grown from tumours: OCI-P5x (papillary serous) and OCI-C5x (clear cell)
- Reagent: siRNA pool against human genes, 1.25 pmol siRNA per well
- Timing: 72 h or 96 h, depending on the cell culture
- Challenge: rucaparib 20 µM (about IC30) or vehicle, present until read-out
- Measurement: 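ATP luminescence measured at 72 or 96 h according to the culture, then normalised and expressed as percent viability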
- Direction: viability, normalised: higher = more viable cells remaining
- Rule for the call: 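Active when normalised viability falls below 80 percent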
- Calls: active = viability under 80%; inactive = viability 80% or more

PHF20L1, rucaparib or vehicle Rucaparib, cell line OCI-C5x (clear cell), technical replicate 1 showed viability, normalised (%) = 31.5 (active).
PHF20L1, rucaparib or vehicle Rucaparib, cell line OCI-C5x (clear cell), technical replicate 2 showed viability, normalised (%) = 32.9 (active).
PHF20L1, rucaparib or vehicle Rucaparib, cell line OCI-C5x (clear cell), technical replicate 3 scored viability, normalised (%) = 32.7 (active).
For PHF20L1, rucaparib or vehicle Rucaparib, cell line OCI-P5x (serous), technical replicate 1, the values are viability, normalised (%) = 43.2 (active).
For PHF20L1, rucaparib or vehicle Rucaparib, cell line OCI-P5x (serous), technical replicate 2, the entry reads viability, normalised (%) = 35 (active).
PHF20L1, rucaparib or vehicle Rucaparib, cell line OCI-P5x (serous), technical replicate 3 scored viability, normalised (%) = 43.8 (active).
For PHF20L1, rucaparib or vehicle Vehicle, cell line OCI-C5x (clear cell), technical replicate 1, the entry reads viability, normalised (%) = 43.3 (active).
For PHF20L1, rucaparib or vehicle Vehicle, cell line OCI-C5x (clear cell), technical replicate 2, the values are viability, normalised (%) = 48.4 (active).
With PHF20L1, rucaparib or vehicle Vehicle, cell line OCI-C5x (clear cell), technical replicate 3 the deposit lists viability, normalised (%) = 41.5 (active).
PHF20L1, rucaparib or vehicle Vehicle, cell line OCI-P5x (serous), technical replicate 1 scored viability, normalised (%) = 60.7 (active).
For PHF20L1, rucaparib or vehicle Vehicle, cell line OCI-P5x (serous), technical replicate 2 the deposit lists viability, normalised (%) = 68.4 (active).
PHF20L1, rucaparib or vehicle Vehicle, cell line OCI-P5x (serous), technical replicate 3 scored viability, normalised (%) = 83.8.
